The source of these data is publication PMC6208767.

The chains behind the UniProt entries cited, without tags or fusion partners. Where a name states a change or a piece, a line headed by the entry shows the natural chain unless it says otherwise.
UniProt Q22A67: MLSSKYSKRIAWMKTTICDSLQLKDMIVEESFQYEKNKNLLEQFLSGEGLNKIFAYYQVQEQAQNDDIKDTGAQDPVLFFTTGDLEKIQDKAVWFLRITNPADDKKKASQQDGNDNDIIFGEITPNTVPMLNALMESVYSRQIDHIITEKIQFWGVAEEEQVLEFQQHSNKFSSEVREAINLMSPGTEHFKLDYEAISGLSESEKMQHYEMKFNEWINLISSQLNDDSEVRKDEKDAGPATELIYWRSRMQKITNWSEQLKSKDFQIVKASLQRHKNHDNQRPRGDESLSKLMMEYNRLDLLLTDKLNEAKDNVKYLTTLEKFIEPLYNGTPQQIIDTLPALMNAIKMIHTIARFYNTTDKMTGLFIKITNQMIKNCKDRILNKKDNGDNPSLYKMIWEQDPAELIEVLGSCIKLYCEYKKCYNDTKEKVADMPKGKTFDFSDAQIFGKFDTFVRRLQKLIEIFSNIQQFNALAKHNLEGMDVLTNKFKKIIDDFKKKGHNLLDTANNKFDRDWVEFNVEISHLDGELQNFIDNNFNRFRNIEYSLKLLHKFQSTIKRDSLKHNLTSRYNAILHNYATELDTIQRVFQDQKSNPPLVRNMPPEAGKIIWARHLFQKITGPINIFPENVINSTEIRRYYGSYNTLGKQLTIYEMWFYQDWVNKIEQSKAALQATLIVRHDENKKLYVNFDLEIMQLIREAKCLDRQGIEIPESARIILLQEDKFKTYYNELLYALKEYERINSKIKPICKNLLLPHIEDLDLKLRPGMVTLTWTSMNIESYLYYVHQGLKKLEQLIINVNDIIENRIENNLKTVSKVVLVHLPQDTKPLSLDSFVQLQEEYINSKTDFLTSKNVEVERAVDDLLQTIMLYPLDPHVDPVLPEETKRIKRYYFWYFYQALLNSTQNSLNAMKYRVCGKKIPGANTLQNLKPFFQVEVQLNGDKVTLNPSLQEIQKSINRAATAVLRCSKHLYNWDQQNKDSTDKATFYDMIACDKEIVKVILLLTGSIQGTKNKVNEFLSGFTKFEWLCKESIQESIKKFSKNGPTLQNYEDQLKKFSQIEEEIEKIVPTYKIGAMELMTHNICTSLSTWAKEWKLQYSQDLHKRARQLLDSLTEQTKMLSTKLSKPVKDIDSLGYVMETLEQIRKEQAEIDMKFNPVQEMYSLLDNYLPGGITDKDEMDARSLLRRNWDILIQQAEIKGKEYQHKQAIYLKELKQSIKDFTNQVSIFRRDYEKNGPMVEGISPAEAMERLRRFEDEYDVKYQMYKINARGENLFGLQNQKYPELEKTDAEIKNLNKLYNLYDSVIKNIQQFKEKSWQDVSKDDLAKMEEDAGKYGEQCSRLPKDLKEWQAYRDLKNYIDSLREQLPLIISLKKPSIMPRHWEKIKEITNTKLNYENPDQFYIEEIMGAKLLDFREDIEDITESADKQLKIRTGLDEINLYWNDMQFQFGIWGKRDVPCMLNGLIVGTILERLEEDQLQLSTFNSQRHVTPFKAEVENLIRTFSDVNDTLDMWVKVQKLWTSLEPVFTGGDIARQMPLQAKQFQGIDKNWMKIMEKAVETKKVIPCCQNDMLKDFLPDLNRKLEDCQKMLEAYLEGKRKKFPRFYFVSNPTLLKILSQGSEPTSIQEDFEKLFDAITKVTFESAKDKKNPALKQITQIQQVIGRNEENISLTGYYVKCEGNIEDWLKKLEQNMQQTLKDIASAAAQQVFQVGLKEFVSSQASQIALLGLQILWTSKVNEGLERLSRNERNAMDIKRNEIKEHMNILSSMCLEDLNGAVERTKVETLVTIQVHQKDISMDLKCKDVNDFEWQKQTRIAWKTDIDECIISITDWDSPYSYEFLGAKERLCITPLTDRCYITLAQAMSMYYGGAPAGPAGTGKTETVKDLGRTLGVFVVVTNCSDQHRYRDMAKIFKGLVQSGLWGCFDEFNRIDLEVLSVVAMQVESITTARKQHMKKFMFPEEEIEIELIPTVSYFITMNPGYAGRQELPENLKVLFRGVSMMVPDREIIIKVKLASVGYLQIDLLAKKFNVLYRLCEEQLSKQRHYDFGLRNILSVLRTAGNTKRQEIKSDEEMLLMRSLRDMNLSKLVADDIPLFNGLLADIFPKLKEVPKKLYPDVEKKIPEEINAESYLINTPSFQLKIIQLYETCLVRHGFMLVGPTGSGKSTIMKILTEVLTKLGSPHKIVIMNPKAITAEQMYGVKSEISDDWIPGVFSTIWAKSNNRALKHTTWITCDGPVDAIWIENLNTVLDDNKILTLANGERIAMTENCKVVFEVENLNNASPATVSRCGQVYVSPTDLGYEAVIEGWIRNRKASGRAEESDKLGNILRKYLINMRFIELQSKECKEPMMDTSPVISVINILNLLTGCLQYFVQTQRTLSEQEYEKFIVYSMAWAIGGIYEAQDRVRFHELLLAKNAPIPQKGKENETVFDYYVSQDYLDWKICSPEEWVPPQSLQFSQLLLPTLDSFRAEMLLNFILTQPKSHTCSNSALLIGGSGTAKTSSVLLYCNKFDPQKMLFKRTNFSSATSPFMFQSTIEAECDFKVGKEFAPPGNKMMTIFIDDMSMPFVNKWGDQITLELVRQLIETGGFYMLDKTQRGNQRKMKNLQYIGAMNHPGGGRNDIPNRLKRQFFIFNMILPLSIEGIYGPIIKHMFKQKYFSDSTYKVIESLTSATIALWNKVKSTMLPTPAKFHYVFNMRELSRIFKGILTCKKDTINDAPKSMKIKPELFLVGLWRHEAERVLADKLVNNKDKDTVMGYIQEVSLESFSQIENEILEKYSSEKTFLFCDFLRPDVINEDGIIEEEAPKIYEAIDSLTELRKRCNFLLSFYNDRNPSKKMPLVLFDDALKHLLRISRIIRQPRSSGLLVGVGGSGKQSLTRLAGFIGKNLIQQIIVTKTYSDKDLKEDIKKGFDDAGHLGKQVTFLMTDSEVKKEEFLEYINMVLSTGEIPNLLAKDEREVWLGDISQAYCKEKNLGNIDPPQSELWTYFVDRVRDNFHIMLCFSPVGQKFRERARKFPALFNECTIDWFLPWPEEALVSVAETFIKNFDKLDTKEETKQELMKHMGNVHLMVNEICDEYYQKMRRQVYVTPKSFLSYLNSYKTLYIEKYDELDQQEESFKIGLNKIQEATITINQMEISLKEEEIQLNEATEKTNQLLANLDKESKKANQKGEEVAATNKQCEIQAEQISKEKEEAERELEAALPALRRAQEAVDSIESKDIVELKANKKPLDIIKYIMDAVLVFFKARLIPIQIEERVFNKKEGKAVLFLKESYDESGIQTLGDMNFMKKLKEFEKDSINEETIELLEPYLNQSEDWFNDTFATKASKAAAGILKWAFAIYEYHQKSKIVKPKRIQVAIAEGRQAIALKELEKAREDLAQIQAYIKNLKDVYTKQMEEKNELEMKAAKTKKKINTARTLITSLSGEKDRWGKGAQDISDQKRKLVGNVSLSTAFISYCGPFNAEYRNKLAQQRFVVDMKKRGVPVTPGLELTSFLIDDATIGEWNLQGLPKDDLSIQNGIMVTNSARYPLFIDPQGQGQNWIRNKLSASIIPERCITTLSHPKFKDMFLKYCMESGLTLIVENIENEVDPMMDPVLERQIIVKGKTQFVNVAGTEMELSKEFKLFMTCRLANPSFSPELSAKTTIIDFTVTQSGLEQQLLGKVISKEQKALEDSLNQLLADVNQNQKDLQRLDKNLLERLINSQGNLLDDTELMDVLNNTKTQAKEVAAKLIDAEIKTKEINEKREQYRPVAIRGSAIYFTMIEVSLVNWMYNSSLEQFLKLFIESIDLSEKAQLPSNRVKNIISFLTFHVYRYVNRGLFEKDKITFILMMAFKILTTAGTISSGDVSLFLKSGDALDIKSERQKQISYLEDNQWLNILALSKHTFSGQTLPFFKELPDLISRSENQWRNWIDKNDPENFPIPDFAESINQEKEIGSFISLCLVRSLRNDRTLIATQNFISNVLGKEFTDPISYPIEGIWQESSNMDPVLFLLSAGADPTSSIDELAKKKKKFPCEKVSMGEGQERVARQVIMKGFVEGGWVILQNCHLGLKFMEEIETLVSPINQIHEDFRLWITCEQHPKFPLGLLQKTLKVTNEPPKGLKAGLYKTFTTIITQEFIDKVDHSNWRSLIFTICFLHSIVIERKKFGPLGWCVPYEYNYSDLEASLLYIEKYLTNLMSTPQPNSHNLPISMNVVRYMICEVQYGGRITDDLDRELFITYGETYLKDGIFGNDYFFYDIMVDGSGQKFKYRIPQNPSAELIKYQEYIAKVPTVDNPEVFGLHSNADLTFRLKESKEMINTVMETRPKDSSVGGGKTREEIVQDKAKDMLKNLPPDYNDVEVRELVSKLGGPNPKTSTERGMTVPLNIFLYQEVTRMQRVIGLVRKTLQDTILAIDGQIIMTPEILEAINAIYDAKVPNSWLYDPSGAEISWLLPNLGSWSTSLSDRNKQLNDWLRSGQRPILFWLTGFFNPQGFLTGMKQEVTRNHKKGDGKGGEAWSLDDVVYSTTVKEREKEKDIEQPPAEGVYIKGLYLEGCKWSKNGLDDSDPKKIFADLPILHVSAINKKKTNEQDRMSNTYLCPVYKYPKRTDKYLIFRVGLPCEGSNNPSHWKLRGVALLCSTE
UniProt I7LY62: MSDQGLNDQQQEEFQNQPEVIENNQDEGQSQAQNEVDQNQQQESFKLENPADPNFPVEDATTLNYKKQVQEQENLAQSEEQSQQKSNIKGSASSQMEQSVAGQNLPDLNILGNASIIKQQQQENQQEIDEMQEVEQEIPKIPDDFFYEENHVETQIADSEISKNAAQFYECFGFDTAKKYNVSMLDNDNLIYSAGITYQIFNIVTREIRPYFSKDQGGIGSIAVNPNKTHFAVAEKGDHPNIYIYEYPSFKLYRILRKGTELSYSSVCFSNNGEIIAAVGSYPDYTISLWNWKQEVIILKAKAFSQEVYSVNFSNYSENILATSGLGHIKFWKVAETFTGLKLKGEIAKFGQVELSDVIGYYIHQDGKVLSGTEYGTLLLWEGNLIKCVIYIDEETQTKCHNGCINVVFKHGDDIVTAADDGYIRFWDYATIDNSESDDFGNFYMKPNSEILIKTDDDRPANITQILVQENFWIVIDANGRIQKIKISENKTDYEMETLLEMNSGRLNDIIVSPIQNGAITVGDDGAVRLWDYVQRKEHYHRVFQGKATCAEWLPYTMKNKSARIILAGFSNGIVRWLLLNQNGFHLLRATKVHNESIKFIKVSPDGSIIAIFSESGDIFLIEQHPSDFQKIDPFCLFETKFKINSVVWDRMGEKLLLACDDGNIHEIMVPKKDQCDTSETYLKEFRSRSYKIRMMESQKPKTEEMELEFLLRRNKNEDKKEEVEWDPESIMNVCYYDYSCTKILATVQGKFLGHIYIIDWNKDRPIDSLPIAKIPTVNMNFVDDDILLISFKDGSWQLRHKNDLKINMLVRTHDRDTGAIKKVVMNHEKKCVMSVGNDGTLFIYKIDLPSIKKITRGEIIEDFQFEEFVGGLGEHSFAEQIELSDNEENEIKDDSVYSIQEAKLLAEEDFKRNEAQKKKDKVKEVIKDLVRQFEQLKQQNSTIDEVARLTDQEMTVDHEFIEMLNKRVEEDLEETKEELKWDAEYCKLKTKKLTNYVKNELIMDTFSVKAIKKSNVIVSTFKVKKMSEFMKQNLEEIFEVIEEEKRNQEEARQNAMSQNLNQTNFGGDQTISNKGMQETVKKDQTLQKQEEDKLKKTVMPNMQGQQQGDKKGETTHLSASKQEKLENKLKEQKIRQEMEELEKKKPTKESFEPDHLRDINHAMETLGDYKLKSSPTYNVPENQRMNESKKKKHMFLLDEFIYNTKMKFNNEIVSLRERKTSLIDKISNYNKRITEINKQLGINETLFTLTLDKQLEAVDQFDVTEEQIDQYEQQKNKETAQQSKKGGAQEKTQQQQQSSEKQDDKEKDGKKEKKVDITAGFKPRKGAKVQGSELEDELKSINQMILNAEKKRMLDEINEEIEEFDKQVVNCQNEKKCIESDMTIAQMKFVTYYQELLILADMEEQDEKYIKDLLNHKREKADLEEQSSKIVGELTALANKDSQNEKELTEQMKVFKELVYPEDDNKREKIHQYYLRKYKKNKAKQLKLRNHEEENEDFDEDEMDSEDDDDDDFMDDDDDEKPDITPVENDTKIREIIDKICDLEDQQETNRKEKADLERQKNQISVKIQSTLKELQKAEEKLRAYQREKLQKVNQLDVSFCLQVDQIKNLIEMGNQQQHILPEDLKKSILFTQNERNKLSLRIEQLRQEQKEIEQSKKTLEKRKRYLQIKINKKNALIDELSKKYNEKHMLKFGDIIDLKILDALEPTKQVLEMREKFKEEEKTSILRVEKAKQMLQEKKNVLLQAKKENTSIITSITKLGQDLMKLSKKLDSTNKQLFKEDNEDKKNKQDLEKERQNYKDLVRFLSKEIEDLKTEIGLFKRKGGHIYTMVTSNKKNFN

Results are given in words; binding and its absence hold for the method and conditions named. Binding seen in cells or lysates may run through a third protein. A yes stands for co-enrichment or nearness to the bait. Other partners may have been found. No binding means not detected with the bait.

For the test, the target named is GFP–Fap43p (overexpressed, N-terminally GFP-tagged full-length Fap43p) (Tetrahymena thermophila) (UniProt Q23K15). Kind of test: affinity purification with mass spectrometry; GFP–Fap43p immunoprecipitated with anti-GFP antibodies (GFP-Trap resin) from the cytoskeletal fraction of cells overexpressing GFP–Fap43p; cells overexpressing GFP alone as control.
As to “Dyh3p, dynein heavy chain of the outer dynein arm (from UniProt Q22A67 1-4620)”, the binding result is “no binding”.

“Dyh4p, dynein heavy chain of the outer dynein arm (from UniProt I7M9J2 1-4595)”: the binding entry is recorded as “no binding”. Under “Dyh5, dynein heavy chain of the outer dynein arm (from UniProt I7M6H4 1-4168)” stands “no binding”; under “Fap44p (ortholog of Chlamydomonas Fap44p) (from UniProt I7LY62)”, “binds”.
